Data on one molecule can be found in patent publication US20110281834A1, “Pharmaceutical Formulations for Iontophoretic Delivery of a Corticosteroid” (priority 2008, published 2011).

Series [1] can be described thus: Iontophoretic drug permeation through hairless rat skin in Franz diffusion cells. As to conditions: 25 mg/mL, pH 7.4; cathodal 0.4 mA/cm^2 for 30 min, 1 hr or 4 hr; FIG. 3. The format is in vitro ADME. On the procedure:
Full thickness abdominal skin freshly excised from sacrificed hairless rats was equilibrated in the receptor buffer and mounted on Franz diffusion cells (0.64 cm^2). The donor compartment (0.5 ml) contained corticosteroid in an appropriate buffer. […] For triamcinolone acetonide (TMCA), 3.5 mg/mL TMCA formulation (in 25% w/w PEG 400, 25% ETOH, 15% cremophor RH40, qs to 100% with citrate buffer pH 5.0) was used for the donor compartment. […] The receptor compartment for TMCA was citrate buffer with 20% ethanol. […] TMCA has no charge at pH 5 and was therefore delivered by anodal iontophoresis to utilize electroosmosis. […] For TMCA, the anode (Silver-Silver Chloride) was placed in the donor chamber along with drug solution and the cathode (Silver wire) was placed in the receptor chamber. Electric current (0.2 to 0.4 mA/cm^2) was applied using a custom current control device for up to 1 hr, after which experiments were either terminated or allowed to continue passively for various durations. […] The samples were then analyzed by HPLC to measure drug permeation through skin. […] For TMCA, samples of receptor fluid (injection volume 20 uL, run time 8 min) were analyzed using the same HPLC system with a flow rate of 0.8 ml/min and UV detection at 237 nm. […] Data were expressed as means±standard deviations. […]
Samples were removed periodically from the receptor and analyzed by HPLC.

The nature of series [2]: In vivo skin delivery: tape stripping (stratum corneum) and skin extraction (underlying skin). The conditions noted are these: hairless, rat, other: cathodal iontophoresis through abdominal skin, 300 uL, ITP treated group, 0.2 mA/cm^2 for 60 minutes, read-out: drug concentration attained in the skin (stratum corneum and underlying skin). The source says: After wiping excess drug off the skin using a moist kimwipe, pre-weighed tape strips were placed on the area exposed to the drug and made sure they adhered to the skin by rolling with a glass rod for 30 seconds. After rolling, the tape strips were held from one end with a pair of forceps and ripped off the skin very quickly. The first strip was discarded to remove the remnants of the drug on the skin. This process was continued with 30 strips to fully remove the stratum corneum and each strip analyzed for drug content by immersing in 1 mL extraction buffer for 1 hr under gentle stirring (150 rpm). […] All tape strip extracts were analyzed with HPLC. […] TEWL values were also recorded after every five strips.
After tape stripping, the rats were euthanized and the underlying skin excised. Before proceeding for skin extraction studies, the weight of the excised skin piece was recorded. This excised skin was minced into small pieces and placed into glass vials. To this minced skin, 1 mL deionised water was added and shaken for 30 minutes on a shaker. To this 100 μL of 0.1% HCl was added and centrifuged. To the centrifuged sample 6 mL of methylene chloride was added and shaken for 30 minutes. […] After evaporation, the samples were reconstituted using 1 mL of acetonitrile, filtered and filled in HPLC vials and analyzed accordingly. […] The measured drug levels from the skin were corrected for recovery. […]

Consider `C[C@@H]1C[C@H]2[C@@H]3CCC4=CC(=O)C=C[C@]4(C)[C@@]3(F)[C@@H](O)C[C@]2(C)[C@@]1(O)C(=O)COP(=O)(O)O` [DEX, dexamethasone sodium phosphate], for which, in series [1], the “permeation over time, all iontophoresis durations vs passive” value is listed as “higher permeation over time compared to passive treatment”. For the same molecule, the concentration at 60 min in series [2] stood at 80.9 ± 19.4 µM.
